Measurements reported in PubChem BioAssay AID2685 (National Center for Advancing Translational Sciences (NCATS), 2010).
Some of the results follow. Further columns of the screen follow, without active or inactive calls. Compounds called inactive in the main read-out are mostly missing here. The note in brackets gives the kind of curve behind each potency; many fits are weak.

Assay: qHTS Assay for Lipid Storage Modulators in Drosophila S3 Cells;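 on cell number change: cells counted by Cell Tracker Red CMTPX staining in the red channel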
Settings: BODIPY lipid droplet fluorescence, 18-24 h; for cell number change: measured here: cell count max response, cells fed with added oleic acid
Procedure, shortened: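 Laser-scanning cytometry quantifies lipid droplet accumulation (500–530 nm total intensity; droplet/cell object ratio) in oleic acid-fed (400 uM added) Drosophila S3 cells treated with a concentration series. 20 uM Triacsin C defined 100% inhibition.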

[1] = measured here: cell number channel AC50, cells fed with added oleic acid
[2] = measured here: lipid fluorescence (Fed channel) AC50, cells fed with added oleic acid

| Structure (SMILES) | cell number change [%] | AC50 [1] | AC50 [2] |
| --- | --- | --- | --- |
| CCOc1ccc(NC(=O)CN(C)C(=O)CC2CCCC2)cc1OCC | 40.6 | 32.6 µM [rising, partial curve, poor fit] | 9.2 µM [rising, partial curve] |
| O=C(CCc1ccccn1)NC1CCCc2c1cnn2-c1ccc(F)cc1F (centres undefined) | -36.2 | 13 µM [falling, partial curve] | 13 µM [falling, partial curve] |
| O=C(O)CC(C(=O)Nc1cccc(C(F)(F)F)c1)C1CCCO1 (centres undefined) | 0.0957 | 6.51 µM [falling, single point] | 6.51 µM [falling, single point] |
| C#CCn1cc(Cl)cc(C(=O)Nc2ccccc2)c1=O | 25.7 | – | 1.46 µM [rising, partial curve] |
| CN(C(=O)c1coc(=O)c2ccccc12)c1ccc(Br)cc1 | 30.1 | – | 29.1 µM [rising, partial curve, poor fit] |
| CCN1CCN(C(=O)/C(C#N)=C/c2ccc(OC(F)F)cc2)CC1 | -47.3 | 16.4 µM [falling, single point] | 16.4 µM [falling, partial curve] |
| Cc1ccc(NC(=O)COc2ncnc3cc([N+](=O)[O-])ccc23)cc1S(=O)(=O)N1CCOCC1 | 17.2 | – | 0.0058 µM [falling, full curve, poor fit] |
| O=C(CSc1ccsc1[N+](=O)[O-])NCCc1ccccc1 | 40.2 | 9.2 µM [rising, single point] | – |
| COc1ccc(-c2csc(Nc3ccc(S(=O)(=O)Nc4cc(C)on4)cc3)n2)cc1C | 110 | 29.1 µM [rising, single point] | 23.1 µM [rising, partial curve] |
| NNS(=O)(=O)c1ccc(Sc2ccccn2)c([N+](=O)[O-])c1 | 28.4 | – | 1.3 µM [rising, partial curve] |
| CC(NC(=O)CCc1nnc(C2(c3ccc(Cl)cc3)CCC2)o1)C1CC1 (centres undefined) | -16.9 | – | 0.00461 µM [falling, full curve] |
| O=C(COC(=O)c1ccccc1F)Nc1cccnc1Cl | 19 | – | 6.51 µM [falling, single point] |
| Cc1cccc(NC(=O)CN2C(=O)N/C(=C\c3cccn3-c3cccc(C(=O)O)c3)C2=O)c1 | 3.66 | 0.13 µM [falling, full curve, poor fit] | 0.146 µM [falling, full curve, poor fit] |
| CC(Sc1nnnn1-c1ccc(O)cc1)C(=O)NNC(=O)c1ccc(F)cc1 (centres undefined) | 2.89 | – | 20.6 µM [rising, partial curve] |
| COC(=O)c1c(NC(C)=O)sc2c1CCCC2 | -26.8 | – | 4.61 µM [falling, partial curve] |
| CCOC(=O)c1cc(-c2nnc(SCC(=O)Nc3ccc(F)cc3)o2)c(C)nc1C | -1.07 | – | – |
| CCN1/C(=C\C(C)=O)Sc2ccc(OC)cc21 | 52.2 | – | – |
| Clc1cccc(Nc2nc(-c3cccnc3)cs2)c1 | -5.27 | – | 0.651 µM [falling, single point] |
| CCOC(=O)c1c(C)[nH]c(C(=O)OCC(=O)NC2CCS(=O)(=O)C2)c1C (centres undefined) | 147 | 4.61 µM [rising, full curve] | 3.66 µM [rising, full curve] |
| COc1ccc(C)cc1-n1nnnc1SCC(=O)NC1CCS(=O)(=O)C1 (centres undefined) | -11.4 | – | 0.82 µM [rising, single point] |

| Structure (SMILES) | cell number change [%] | AC50 [1] | AC50 [2] |
| --- | --- | --- | --- |
| O=C(O)CCN1Cc2ccccc2C1=O | -47.4 | 0.0517 µM [falling, full curve] | 0.517 µM [falling, full curve, poor fit] |
| O=C(N/C(=C/c1cccs1)C(=O)N1CCCC1)c1ccccc1 | -2.63 | – | 35.5 µM [falling, single point] |
| C#CCNC(=O)C1=C[C@@H](c2cn(C(C)=O)c3ccccc23)C[C@@H](OCCCCO)O1 | -19.3 | – | 29.1 µM [falling, single point] |
| COCCCn1c2nc3ccccc3nc2c2c(=O)n(-c3ccccc3OC)cnc21 | – | 0.259 µM [rising, partial curve, poor fit] | 6.51 µM [rising, single point] |
| COc1ccc(S(=O)(=O)N2CCCCCC2)cc1NS(=O)(=O)c1cc(C(=O)O)cc(C)c1C | -5.89 | – | 0.651 µM [falling, partial curve, poor fit] |
| COc1ccc(N2C(=O)CC(N3CCCCC3)C2=O)cc1 (centres undefined) | -29.2 | 4.61 µM [falling, full curve, poor fit] | 0.13 µM [falling, full curve, poor fit] |
| N#Cc1c2n(c3c(=S)nc[nH]c13)CCCCC2 | -11.3 | – | 0.00517 µM [falling, full curve, poor fit] |
| Cc1ccccc1CS(=O)(=O)Cc1ccc(C(=O)NCC2CCCO2)o1 (centres undefined) | – | – | 20.6 µM [rising, single point] |
| CCCc1cnc(N2CCN(C(=S)NC)CC2)nc1 | 13.2 | 2.91 µM [falling, single point] | – |
| FC(F)(F)c1ccccc1-n1c(-c2ccco2)n[nH]c1=S | 31.2 | 6.51 µM [rising, partial curve, poor fit] | – |
| CCOc1ccc(C(=O)NN2C(=O)C3C4C=CC(O4)C3C2=O)cc1 (centres undefined) | 159 | 6.51 µM [falling, single point] | – |
| Cc1cccc(NC(=O)CSc2nnc(C)n2Cc2ccccc2)c1 | 91.3 | 2.31 µM [rising, full curve] | 2.06 µM [rising, partial curve] |
| Cc1cccc(C)c1NC1=NC(=S)N(c2ccccc2)C12CCOC(C)(C)C2 (centres undefined) | -27.4 | – | 0.92 µM [falling, full curve, poor fit] |
| CCOc1ccc(N(CC(=O)Nc2cccc(OC)c2)S(C)(=O)=O)cc1 | -15.2 | – | 0.184 µM [rising, full curve, poor fit] |
| CCOc1ccc(NS(=O)(=O)c2c(C)nc3sc(CC)nn3c2=O)cc1 | -9.88 | – | 2.91 µM [falling, full curve, poor fit] |
| O=C(CSc1ncn[nH]1)NCCCc1ccccc1 | 12 | – | 6.51 µM [rising, single point] |
| O=C(NCc1cccnc1)/C(=C/c1ccccc1)NC(=O)c1ccccc1 | 18 | – | – |
| CC(NC(=O)C1CCCN1C(=O)OCc1ccccc1)c1ccccc1 (centres undefined) | -31.5 | 32.6 µM [falling, single point] | – |
| CCc1ccc(NC(=O)COC(=O)CN2C(=O)COc3ccccc32)cc1 | – | – | 6.51 µM [falling, single point] |
| CN(CC(=O)Nc1cccc(F)c1)C(=O)c1cc2c(s1)CCCCC2 | 101 | 13 µM [rising, partial curve] | – |

Compounds from the list above with a thiophene ring, fused or not:

| Structure (SMILES) | cell number change [%] | AC50 [1] | AC50 [2] |
| --- | --- | --- | --- |
| O=C(CSc1ccsc1[N+](=O)[O-])NCCc1ccccc1 | 40.2 | 9.2 µM [rising, single point] | – |
| COC(=O)c1c(NC(C)=O)sc2c1CCCC2 | -26.8 | – | 4.61 µM [falling, partial curve] |
| O=C(N/C(=C/c1cccs1)C(=O)N1CCCC1)c1ccccc1 | -2.63 | – | 35.5 µM [falling, single point] |
| CN(CC(=O)Nc1cccc(F)c1)C(=O)c1cc2c(s1)CCCCC2 | 101 | 13 µM [rising, partial curve] | – |

The results go on:

| Structure (SMILES) | cell number change [%] | AC50 [1] | AC50 [2] |
| --- | --- | --- | --- |
| CSc1ccc(/C=C(\C#N)C(=O)Nc2cccc(C)c2)cc1 | -45.2 | 18.4 µM [falling, single point] | 16.4 µM [falling, single point] |
| COc1ccccc1/C=C/c1ccc2cccc(O)c2n1 | -3.55 | – | – |
| COC(=O)c1cscc1NC(C)=O | -6.02 | – | 10.3 µM [rising, single point] |
| O=c1oc2ccccc2c2[nH]ccc12 | 134 | – | – |
| O=C(CCCn1c(=O)[nH]c2cc(Cl)ccc2c1=O)N1CCN(c2ccc([N+](=O)[O-])cc2)CC1 | 13.1 | – | 20.6 µM [rising, single point] |
| Cc1cccc(NC(=O)c2cccc(C(=O)Nc3cccc(C)c3C)n2)c1C | 6.74 | – | 29.1 µM [rising, single point] |
| CCc1cccc(CC)c1NC(=O)CSc1nnc(C2CC2)n1N | 23 | – | – |
| CN(C)c1ccnc2sc3c(=O)n(-c4ccccc4)cnc3c12 | -9.91 | – | – |
| O=C(Nc1nc2cc(Cl)ccc2s1)C1CCCN(S(=O)(=O)c2cccc3cccnc23)C1 (centres undefined) | 2.36 | – | – |
| CCn1c(SCC(=O)Nc2ccccc2N2CCCCC2)nc2c1c(=O)n(C)c(=O)n2C | – | – | 1.3 µM [rising, full curve] |
| Cc1cccc(-c2nc(Nc3ccc(O)cc3)c3ccccc3n2)c1 | -42.2 | 18.4 µM [falling, single point] | 16.4 µM [falling, single point] |
| CCOC(=O)C1CCN(C(=O)C2CCC(=O)N(Cc3cccc(C(F)(F)F)c3)C2)CC1 (centres undefined) | 27 | 0.103 µM [rising, full curve, poor fit] | 0.103 µM [rising, full curve, poor fit] |
| O=C(Cn1c(=O)oc2cc(S(=O)(=O)N3CCCC3)ccc21)NCc1ccccn1 | – | – | 25.9 µM [falling, partial curve] |
| O=C(CCCN1CCC(NC(=O)c2ccccc2)CC1)c1ccc(Cl)cc1 | 10.6 | – | 0.103 µM [rising, full curve, poor fit] |
| CCCn1c(-c2cccnc2Cl)nc2cc(Cl)c(Cl)cc21 | – | 0.58 µM [rising, partial curve] | – |
| CS(=O)(=O)N(CC(=O)NCCSc1ccccn1)c1cccc2ccccc12 | -5.43 | – | 4.61 µM [falling, single point] |
| O=[N+]([O-])c1ccccc1CNC1CCCc2ccccc21 (centres undefined) | 27.9 | – | 5.8 µM [rising, full curve, poor fit] |
| CCOC(=O)COc1ccc2c(c1)C(=O)CC1(CCCCC1)O2 | 2.8 | – | 0.82 µM [falling, full curve] |
| CCN(CC)S(=O)(=O)c1cccc(-c2n[nH]c(=S)n2/N=C/c2ccc(OC)cc2)c1 | -50 | 0.0058 µM [falling, full curve, poor fit] | 29.1 µM [rising, single point] |
